The results in this text go back to patent US10766798.

By UniProt entry, the sequences of proteins in these tests, tags left out.
UniProt P0A1P6: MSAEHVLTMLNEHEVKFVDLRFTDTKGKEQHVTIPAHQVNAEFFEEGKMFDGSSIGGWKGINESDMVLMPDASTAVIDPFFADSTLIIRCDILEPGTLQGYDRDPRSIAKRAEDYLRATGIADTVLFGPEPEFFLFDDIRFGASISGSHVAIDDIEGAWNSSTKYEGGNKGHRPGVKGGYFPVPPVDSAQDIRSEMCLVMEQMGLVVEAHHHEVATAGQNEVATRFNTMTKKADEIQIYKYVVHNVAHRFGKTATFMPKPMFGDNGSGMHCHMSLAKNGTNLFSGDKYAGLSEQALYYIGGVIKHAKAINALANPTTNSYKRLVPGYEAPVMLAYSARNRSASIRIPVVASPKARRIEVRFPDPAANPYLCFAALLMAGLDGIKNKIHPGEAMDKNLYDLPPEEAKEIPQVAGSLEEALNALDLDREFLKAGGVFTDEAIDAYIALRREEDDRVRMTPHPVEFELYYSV

The target in this test is glutamine synthetase displayed on the yeast surface (UniProt P0A1P6). Briefly: purified GS added at 100 uM to medium with yeast displaying GS, in the presence of divalent metal; aggregation seen by eye and by SEM.

Results are given in words; binding and its absence hold for the method and conditions named. Some binding calls cover weakened binding; strength is not graded here.

As to “glutamine synthetase, overexpressed and purified from BL21 bacteria cells (from UniProt P0A1P6 1-469) (enzyme)”, the binding entry is “binds”.
